The values that follow come from PubChem BioAssay AID743402 (Broad Institute, 2014).

The campaign covered roughly 1,200 compounds. About 140 (12%) were called active.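 How the source made its calls: active means fitted curve falls past -35% activity change at a dose under twice the top valid dose, in every replicate test; inconclusive means replicate tests disagree on the call; inactive means the rest, including activity in the opposite direction.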 This part holds few or none of the hits.

The assay in a line: CFTR-F508del correctors, dose response, FRT cells, YFP quenching, cherry-pick (AID 743402).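 Further: compounds act as correctors raising surface CFTR-F508del before acute activation.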 To be noted: FRT CFTR-F508del YFP iodide quenching, 24 h, channel opened with forskolin and a potentiator; at 26 µM (top of the series) unless noted.
Turning to `COc1cccc(S(=O)(=O)N(C)C[C@@H]2Oc3cc(C4=CCCC4)ccc3S(=O)(=O)N([C@H](C)CO)C[C@H]2C)c1`, the activity change, negative = more quenching (active) is inactive: -3.33%.
For `CCC1(C2=CCCCC2)C(=O)NC(=S)N=C1N` (stereo unspecified), the activity change, negative = more quenching (active) was inactive: 10%.
Take `C[C@@H]1CN([C@@H](C)CO)S(=O)(=O)c2ccc(-c3ccc(C#N)cc3)cc2O[C@H]1CN(C)Cc1cccc(F)c1`: the activity change, negative = more quenching (active) was inactive: 0%.
For `CCOC(=O)C1=CN(Cc2ccco2)S(=O)(=O)NC1c1ccc(C(F)(F)F)cc1` (stereo unspecified), the activity change, negative = more quenching (active) was inactive: 3.33%.
`C/C=C/c1ccc([C@H]2[C@@H](CNC(=O)CC)N(C(=O)COC)[C@H]2CO)cc1`: the activity change, negative = more quenching (active) was inactive: 15.8%.
With `CCOc1ccccc1N1CCN(C(=O)c2cc3ccccc3cc2OC)CC1` the figure was inactive: -1.61%; with `CCN(CC)CCCNc1nc2ccccc2c2nc(-c3ccncc3)nn12`, inactive: 12.9%; with `CCN1C(=O)[C@H]2[C@@H](c3ccc(-c4ccc(Cl)c(Cl)c4)cc3)N[C@@](C)(C(=O)OC)[C@H]2C1=O`, inactive: 6.67%.
With `CCOc1ccc(S(=O)(=O)N2CCOCC2)cc1NC(=O)CSCC(=O)Nc1ccc(OC)cc1` the figure was inactive: 14.8%; with `Cc1cccc(C(=O)NCC(=O)OCC(=O)N(C)CC(=O)Nc2ccccc2Cl)c1`, inactive: 9.79%; with `COc1ccc(Cl)cc1C(=O)NNC(=O)CCNS(=O)(=O)c1ccccc1`, inactive: 8.01%.
With `Cc1occc1C(=O)N/N=C/c1c(O)ccc2ccccc12` the figure was inactive: 9.13%; with `O=C1CN(S(=O)(=O)Cc2ccccc2)C[C@@H]2[C@@H](c3ccc(C#Cc4cccc(F)c4)cc3)[C@@H](CO)N12`, inactive: -10.7%; with `C[C@H]1CCCCO[C@@H](CN(C)C(=O)C2CCCCC2)[C@@H](C)CN([C@@H](C)CO)C(=O)c2cc(NC(=O)Nc3ccc(C(F)(F)F)cc3)ccc2O1`, inactive: 13.4% [at 23.5 µM].
In the case of `CCc1c(C)nc2ncnn2c1NCCc1ccc(OC)cc1`, the activity change, negative = more quenching (active) is inactive: 0%.
Under `CC1Cc2ccccc2N1S(=O)(=O)c1cccc(C(=O)N2CCN(c3ncccn3)CC2)c1` (stereo unspecified) stands inactive: 6.67%; under `CCCC(=O)NC(NC(=S)Nc1ccc(N=Nc2ccccc2)cc1)C(Cl)(Cl)Cl` (stereo unspecified), inactive: -18.4%.
With `O=C(Cc1ccccn1)NCC[C@@H]1CC[C@H](NC(=O)Nc2ccc(C(F)(F)F)cc2)[C@@H](CO)O1` the figure was inactive: 3.12%; with `CN(C(=O)c1ccccc1C(=O)OCC(=O)Nc1ccc(S(N)(=O)=O)cc1)c1ccccc1`, inactive: -3.33%; with `COc1cccc(N=Nc2ccc3cccnc3c2O)c1`, inactive: 9.79%.
As to `COc1ccc(OC)c(-c2cnc(OC(C)(C)C)nc2OC(C)(C)C)c1`, the activity change, negative = more quenching (active) was inactive: 3.12%.
Under `CC(=O)NS(=O)(=O)c1ccc(NC(=O)CSc2ccc(Cl)cc2)cc1` stands inactive: 3.57%.
Regarding `O=C(NCCCN1CCOCC1)c1cc(S(=O)(=O)N2CCOCC2)c(Cl)cc1Cl`, the activity change, negative = more quenching (active) was inactive: 6.67%.
In the case of `Cc1ccc(OCC(=O)Nc2ccc3c(c2)ncn3C)cc1`, the activity change, negative = more quenching (active) was inactive: -6.67%.
With `Cc1ccc(-c2cccc(CN3CCN(C(C)C)C(CCO)C3)c2)o1` (stereo unspecified) the figure was inactive: 16.2%.
As to `CC(=NNC(=S)N1CCCCC1)c1cccc(C)n1`, the activity change, negative = more quenching (active) was inactive: 0%.
Under `CC12CCC(CC1O)C2C(=O)O` (stereo unspecified) stands inactive: -10.7%; under `O=C(N/N=C/c1ccccc1OC(F)F)c1cc(-c2ccncc2)nc2ccccc12`, inactive: 12.5%; under `Cc1ccc(C(=O)Nc2cccc(C(F)(F)F)c2)cc1Nc1cnccn1`, inactive: 20%.
With `Cc1ccnc2c1ccc1cccnc12` the figure was inactive: 13.1%; with `COC(=O)/C=C/c1ccccc1S(=O)(=O)N(Cc1ccccc1)Cc1ccco1`, inactive: 6.25%.
With `CC1CN(S(=O)(=O)c2cccc(C(=O)Nc3cc(Cl)ccc3N3CCOCC3)c2)CC(C)O1` (stereo unspecified) the figure was inactive: 0%.
Turning to `C[C@@H]1CN([C@H](C)CO)S(=O)(=O)c2ccc(C#Cc3ccccc3F)cc2O[C@H]1CN(C)C(=O)Cc1cccnc1`, the activity change, negative = more quenching (active) was inactive: 16.5%.
Under `CCS(=O)(=O)N1CC(=O)N2[C@H](CO)[C@@H](c3ccc(C#CCC(C)C)cc3)[C@@H]2C1` stands inactive: -9.82%.
For `Cc1cccc(N2CCN(C(=O)c3ccc4[nH]c(C)c(C)c4c3)CC2)c1C`, the activity change, negative = more quenching (active) was inactive: -6.67%.
Turning to `O=CNc1cc(-c2ccc(C(=O)NC3CC3)cc2)cn2c(-c3ccccc3)cnc12`, the activity change, negative = more quenching (active) was inactive: 9.58%.
With `NS(=O)(=O)c1ccc(CCNc2nn3c(-c4cccc(OC(F)(F)F)c4)cnc3s2)cc1` the figure was inactive: 3.33%; with `Cc1ccc(CNC(=O)COC(=O)c2ccc(S(=O)(=O)N(C)C)cc2)cc1`, inactive: -13.1%; with `CC(Oc1ccccc1Cl)C(=O)Nc1ccc(S(=O)(=O)Nc2nccs2)cc1` (stereo unspecified), inactive: -3.85%.
With `Cc1ccc(S(=O)(=O)NCc2ccccc2)cc1C(=O)N1CC(C)CC(C)C1` (stereo unspecified) the figure was inactive: 19.4%; with `CC(=O)NC(c1ccc2ccccc2c1)c1ccc2cccnc2c1O` (stereo unspecified), inactive: -3.85%.
As to `O=C(CSC1=NCCN1)Nc1cccc([N+](=O)[O-])c1`, the activity change, negative = more quenching (active) was inactive: 0%.
As for `O=C(Cc1ccccn1)NCC[C@@H]1CC[C@H](NC(=O)Nc2ccc(C(F)(F)F)cc2)[C@H](CO)O1`, the activity change, negative = more quenching (active) was inactive: 14.3%.
With `COc1cccc(NC(=O)N(C)C[C@H]2OCc3ccccc3-c3c(n(C)c4ccccc34)C(=O)N([C@H](C)CO)C[C@H]2C)c1`, the activity change, negative = more quenching (active) is inactive: 27.4%.
Regarding `COc1ccc(CNC(=O)c2cc3c(c(-c4cccc(-c5ccc(C#N)cc5)c4)n2)[C@@H](CCO)N([S@](=O)C(C)(C)C)C3)cc1`, the activity change, negative = more quenching (active) is inactive: 19.3% [at 23.5 µM].
For the compound `CC(C)C[C@H](NC(=O)c1nc[nH]c1C(=O)N1CCN(C(=O)OC(C)(C)C)CC1)C(=O)OC(C)(C)C`, the activity change, negative = more quenching (active) was inactive: -3.33%.
Under `COc1cccc(C(=O)Nc2sc3c(c2C#N)CCN(C(C)=O)C3)c1` stands inactive: 12.7%.
Regarding `O=C(CCc1ccccc1)NCC(c1ccco1)N1CCc2ccccc21` (stereo unspecified), the activity change, negative = more quenching (active) was inactive: -6.46%.
Take `CCCCNC(=O)C(=O)Nc1ccc2c(c1)N(S(=O)(=O)c1cccs1)CCC2`: the activity change, negative = more quenching (active) is inactive: 6.25%.
Turning to `COc1ccc(OCC(=O)N/N=C/C=C/c2ccccc2)cc1`, the activity change, negative = more quenching (active) is inactive: 0.208%.
With `COc1ccc2c(c1)[nH]c1c(=O)n(/N=C/c3ccc(OC)c(CN4CCCC4)c3)cnc12` the figure was inactive: -3.33%.
